{"source": "patent US8911962B2", "about": "“Method for neutralization of antibiotics in a culture medium” (bioMerieux, Inc., priority 2009, dated 2014)", "test": "Neutralization of imipenem in BacT/Alert culture bottle containing resin adsorbents, with or without cysteine, monitored by SEC-HPLC at 300 nm", "assay_type": "physicochemical", "settings": "for % Change From T = 0 / Peak area at 10.88 min: imipenem 40 μg/mL, resin bottle, 36° C.", "note": "At least one compound was matched to its structure with a doubt left.", "data": [{"smiles": "C[C@@H](O)[C@H]1C(=O)N2C(C(=O)O)=C(SCCN=CN)C[C@H]12", "note": "[Imipenem, imipenem]", "values": [{"measurement": "reduction of imipenem", "setting": "after 90 minutes", "result": "no reduction"}, {"measurement": "% Change From T = 0", "setting": "reaction time 20 min", "result": "+8.5%"}, {"measurement": "Peak area at 10.88 min", "setting": "reaction time 20 min", "result": 1756343}, {"measurement": "% Change From T = 0", "setting": "reaction time 40 min", "result": "+11%"}, {"measurement": "Peak area at 10.88 min", "setting": "reaction time 40 min", "result": 1795587}, {"measurement": "% Change From T = 0", "setting": "reaction time 60 min", "result": "+11%"}, {"measurement": "Peak area at 10.88 min", "setting": "reaction time 60 min", "result": 1798536}, {"measurement": "% Change From T = 0", "setting": "reaction time 90 min", "result": "+7%"}, {"measurement": "Peak area at 10.88 min", "setting": "reaction time 90 min", "result": 1737014}]}]}
